This experiment concerns L1210 leukemia ip in BDF1 mice, survival T/C. As to the kind of experiment: NCI In Vivo Anticancer Drug Screen. Data for tumor model L1210 Leukemia (intraperitoneal) in B6D2F1 (BDF1) mice. The settings on record: higher T/C = longer survival.
Setting [1] is: T/C endpoint: mean survival time, dose: 100.0 mg/kg/injection, schedule: Q04DX002 (ip), vehicle: Klucel (hydroxypropylcellulose) (HPC).
[2] abbreviates: T/C endpoint: mean survival time, dose: 200.0 mg/kg/injection, schedule: Q04DX002 (ip), vehicle: Klucel (hydroxypropylcellulose) (HPC).
Where [3] appears, read: T/C endpoint: mean survival time, dose: 400.0 mg/kg/injection, schedule: Q04DX002 (ip), vehicle: Klucel (hydroxypropylcellulose) (HPC).
Where [4] appears, read: T/C endpoint: mean survival time, dose: 100.0 mg/kg/injection, schedule: Q04DX002 (ip), vehicle: saline with Tween-80.
Where [5] appears, read: T/C endpoint: mean survival time, dose: 200.0 mg/kg/injection, schedule: Q04DX002 (ip), vehicle: saline with Tween-80.
[6] abbreviates: T/C endpoint: mean survival time, dose: 400.0 mg/kg/injection, schedule: Q04DX002 (ip), vehicle: saline with Tween-80.

The list does not hold the whole screen: its compounds were picked by chemical class. Not every dose and run of a compound is shown. T/C is the treated group as % of the vehicle group. Some entries give survivors of the animals treated and no T/C: the source files T/C as zero there, which appears to mark a toxic dose or a test without result, not a measured value. Some doses without a T/C left all or most animals alive at the check, yet need not have been tolerated: survival well below the control is almost never listed, so the zero probably covers shortened survival too. Survivors were counted at the toxicity check, usually on the fifth day, unless a day is given; later deaths do not show. Schedule codes are those of the source, read here as Q, the interval in days (D) or hours (H), X, the number of doses. Some schedules carry Z or #; the key to these is not given. For survival time, the PubChem record calls one and a half times the control and up active, and a quarter to a half above the control has no call in these data; cut-offs in other NCI protocols can differ. Some entries hold several experiments; the values are given in rising order. Some T/C values are marked as having no survivor count here; that says nothing about deaths at the dose. Some T/C values carry the count of animals alive at the toxicity check (mostly the fifth day); without a count or a note in brackets, all were alive then.

In the case of `O=C(O)/C=C\c1ccccc1N(CCCl)CCCl`, the T/C reads like this: (T/C endpoint: mean survival time, dose: 1.5 mg/kg/injection, schedule: Q01DX015 (ip), vehicle: carboxymethylcellulose (CMC)) 95 % of control; (T/C endpoint: mean survival time, dose: 2.9 mg/kg/injection, schedule: Q01DX Z (ip), vehicle: methylcellulose (MC)) 96 % of control; (T/C endpoint: mean survival time, dose: 3.0 mg/kg/injection, schedule: Q01DX015 (ip), vehicle: carboxymethylcellulose (CMC)) 86 % of control; (T/C endpoint: mean survival time, dose: 4.4 mg/kg/injection, schedule: Q01DX Z (ip), vehicle: methylcellulose (MC)) 116 % of control; (T/C endpoint: mean survival time, dose: 6.0 mg/kg/injection, schedule: Q01DX015 (ip), vehicle: carboxymethylcellulose (CMC)) 105 % of control; (T/C endpoint: mean survival time, dose: 6.25 mg/kg/injection, schedule: Q01DX001 (ip), vehicle: carboxymethylcellulose (CMC)) 97 % of control. The T/C is 121 and 135 % of control (T/C endpoint: mean survival time, dose: 6.6 mg/kg/injection, schedule: Q01DX Z (ip), vehicle: methylcellulose (MC)); 124 and 136 % of control (T/C endpoint: mean survival time, dose: 10.0 mg/kg/injection, schedule: Q01DX Z (ip), vehicle: methylcellulose (MC)); 106 % of control (T/C endpoint: mean survival time, dose: 12.0 mg/kg/injection, schedule: Q01DX015 (ip), vehicle: carboxymethylcellulose (CMC)); 110 % of control (T/C endpoint: mean survival time, dose: 12.5 mg/kg/injection, schedule: Q01DX001 (ip), vehicle: carboxymethylcellulose (CMC)); 121 % of control (T/C endpoint: mean survival time, dose: 14.8 mg/kg/injection, schedule: Q01DX Z (ip), vehicle: other); 119 % of control (T/C endpoint: mean survival time, dose: 15.0 mg/kg/injection, schedule: Q01DX Z (ip), vehicle: methylcellulose (MC)). The T/C was 111 % of control (T/C endpoint: mean survival time, dose: 22.2 mg/kg/injection, schedule: Q01DX Z (ip), vehicle: other); 164 % of control (T/C endpoint: mean survival time, dose: 23.0 mg/kg/injection, schedule: Q01DX Z (ip), vehicle: methylcellulose (MC)); 114 % of control (T/C endpoint: mean survival time, dose: 24.0 mg/kg/injection, schedule: Q01DX015 (ip), vehicle: carboxymethylcellulose (CMC)); 119 % of control (T/C endpoint: mean survival time, dose: 25.0 mg/kg/injection, schedule: Q01DX001 (ip), vehicle: carboxymethylcellulose (CMC)); 160 % of control (T/C endpoint: mean survival time, dose: 48.0 mg/kg/injection, schedule: Q01DX015 (ip), vehicle: carboxymethylcellulose (CMC)). For the same compound, the survivor count (T/C endpoint: mean survival time, dose: 33.3 mg/kg/injection, schedule: Q01DX Z (ip), vehicle: other) is recorded as 1 of 6 and the survivor count (T/C endpoint: mean survival time, dose: 50.0 mg/kg/injection, schedule: Q01DX Z (ip), vehicle: other) was 0 of 6.
`O=P(OCc1ccccc1)(N(CCCl)CCCl)N1CC1` (stereo not given): the T/C runs as follows: (T/C endpoint: mean survival time, dose: 1.25 mg/kg/injection, schedule: Q01DX Z (ip), vehicle: saline) 95 % of control; (T/C endpoint: mean survival time, dose: 2.5 mg/kg/injection, schedule: Q01DX Z (ip), vehicle: saline) 111 % of control; (T/C endpoint: mean survival time, dose: 5.0 mg/kg/injection, schedule: Q01DX Z (ip), vehicle: saline) 116 % of control; (T/C endpoint: mean survival time, dose: 5.0 mg/kg/injection, schedule: Q01DX Z (ip), vehicle: water) 111 % of control; (T/C endpoint: mean survival time, dose: 10.0 mg/kg/injection, schedule: Q01DX Z (ip), vehicle: water) 96 % of control. Besides, the survivor count (T/C endpoint: mean survival time, dose: 20.0 mg/kg/injection, schedule: Q01DX Z (ip), vehicle: water) is on record as 4 of 6.
As to `CCCCCCC(C)OP(O)OC(C)CCCCCC` (stereo not given), the T/C by setting is: under setting [1], 98 % of control; under setting [2], 102 % of control; under setting [3], 96 % of control [2 of 3 alive].
Turning to `CCN(CC)CCOC(=O)C(O)(c1ccc(OC)cc1)c1ccc(OC)cc1`, the T/C was 101 % of control (T/C endpoint: mean survival time, dose: 75.0 mg/kg/injection, schedule: Q01DX001 (ip), vehicle: other) and 92 % of control (T/C endpoint: mean survival time, dose: 150.0 mg/kg/injection, schedule: Q01DX001 (ip), vehicle: other).
Consider `CCNCCN=C(N)C(N)=NCCNCC`, for which the T/C under setting [4] was 93 % of control [survivor count not shown], the T/C under setting [5] was 104 % of control [survivor count not shown] and the T/C under setting [6] was 97 % of control [survivor count not shown].
On to `O=[N+]([O-])C1CCC(P2(=O)NC3CCCCC3S2)CC1` (stereo not given), for which the T/C is 94 % of control (T/C endpoint: mean survival time, dose: 25.0 mg/kg/injection, schedule: Q04DX002 (ip), vehicle: saline with Tween-80); 97 % of control (T/C endpoint: mean survival time, dose: 50.0 mg/kg/injection, schedule: Q04DX002 (ip), vehicle: saline with Tween-80); 97 and 98 % of control under setting [4]; 103 % of control under setting [5]. Further, the survivor count under setting [6] is 2 of 3.
Turning to `Cc1cc(N(CCCl)CCCl)ccc1C=NCCO`, the T/C runs as follows: (T/C endpoint: mean survival time, dose: 50.0 mg/kg/injection, schedule: Q01DX001 (ip), vehicle: carboxymethylcellulose (CMC)) 109 % of control; (T/C endpoint: mean survival time, dose: 100.0 mg/kg/injection, schedule: Q01DX001 (ip), vehicle: carboxymethylcellulose (CMC)) 105 % of control; (T/C endpoint: mean survival time, dose: 200.0 mg/kg/injection, schedule: Q01DX001 (ip), vehicle: carboxymethylcellulose (CMC)) 117 % of control. The survivor count (T/C endpoint: mean survival time, dose: 400.0 mg/kg/injection, schedule: Q01DX001 (ip), vehicle: carboxymethylcellulose (CMC)) is given as 2 of 4.
For the compound `CCNP(=O)(O)N(CCCl)CCCl.NC1CCCCC1`, the T/C reads like this: (T/C endpoint: mean survival time, dose: 10.0 mg/kg/injection, schedule: Q01DX Z (ip), vehicle: saline) 109 % of control; (T/C endpoint: mean survival time, dose: 30.0 mg/kg/injection, schedule: Q01DX Z (ip), vehicle: saline) 129 % of control; (T/C endpoint: mean survival time, dose: 100.0 mg/kg/injection, schedule: Q01DX Z (ip), vehicle: saline) 157 % of control. The survivor count (T/C endpoint: mean survival time, dose: 300.0 mg/kg/injection, schedule: Q01DX Z (ip), vehicle: saline) was 6 of 6.
On to `COP(OC)c1ccc(C)cc1`, for which the T/C (T/C endpoint: mean survival time, dose: 100.0 mg/kg/injection, schedule: Q04DX003 (ip), vehicle: saline) was 106 % of control; the T/C (T/C endpoint: mean survival time, dose: 200.0 mg/kg/injection, schedule: Q04DX003 (ip), vehicle: saline) was 98 % of control; the T/C (T/C endpoint: mean survival time, dose: 400.0 mg/kg/injection, schedule: Q04DX003 (ip), vehicle: saline) was 106 % of control.
For the compound `O=C(O)c1c([N+](=O)[O-])cc([N+](=O)[O-])c(-c2c([N+](=O)[O-])cc([N+](=O)[O-])cc2[N+](=O)[O-])c1[N+](=O)[O-]`, the T/C by setting is: (T/C endpoint: mean survival time, dose: 100.0 mg/kg/injection, schedule: Q04DX003 (ip), vehicle: alcohol) 101 % of control [survivor count not shown]; (T/C endpoint: mean survival time, dose: 200.0 mg/kg/injection, schedule: Q04DX003 (ip), vehicle: alcohol) 96 % of control [survivor count not shown].
For `CC(C)OP(C)(=O)OCC(Cl)(Cl)Cl` (stereo not given), the T/C under setting [1] was 115 % of control [survivor count not shown], the T/C under setting [2] was 112 % of control [survivor count not shown] and the T/C under setting [3] is 108 % of control [survivor count not shown].
On to `COP1OCC(C)(C)O1` (stereo not given), for which the T/C (T/C endpoint: mean survival time, dose: 100.0 mg/kg/injection, schedule: Q01DX001 (ip), vehicle: saline) is 96 % of control; the T/C (T/C endpoint: mean survival time, dose: 200.0 mg/kg/injection, schedule: Q01DX001 (ip), vehicle: saline) is 94 % of control; the T/C (T/C endpoint: mean survival time, dose: 400.0 mg/kg/injection, schedule: Q01DX001 (ip), vehicle: saline) was 91 % of control.
Turning to `O=C(Cc1ccccc1)OCCNCCCl`, the T/C runs as follows: (T/C endpoint: median survival time, dose: 100.0 mg/kg/injection, schedule: Q01DX009 (ip), vehicle: saline) 106 % of control; (T/C endpoint: median survival time, dose: 200.0 mg/kg/injection, schedule: Q01DX009 (ip), vehicle: saline) 105 % of control; (T/C endpoint: median survival time, dose: 400.0 mg/kg/injection, schedule: Q01DX009 (ip), vehicle: saline) 96 % of control.
